Experimental findings from publication PMC5072318 are described below.

Protein sequences, listed by entry. Tags and fused reporters are not part of them.
UniProt P10218: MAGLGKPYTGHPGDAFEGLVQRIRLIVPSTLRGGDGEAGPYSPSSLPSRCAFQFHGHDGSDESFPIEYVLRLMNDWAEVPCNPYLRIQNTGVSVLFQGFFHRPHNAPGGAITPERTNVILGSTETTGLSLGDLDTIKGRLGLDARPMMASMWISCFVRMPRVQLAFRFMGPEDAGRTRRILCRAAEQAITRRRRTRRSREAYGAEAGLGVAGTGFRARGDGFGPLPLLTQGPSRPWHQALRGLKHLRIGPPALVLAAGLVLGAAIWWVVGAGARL
UniProt P10240: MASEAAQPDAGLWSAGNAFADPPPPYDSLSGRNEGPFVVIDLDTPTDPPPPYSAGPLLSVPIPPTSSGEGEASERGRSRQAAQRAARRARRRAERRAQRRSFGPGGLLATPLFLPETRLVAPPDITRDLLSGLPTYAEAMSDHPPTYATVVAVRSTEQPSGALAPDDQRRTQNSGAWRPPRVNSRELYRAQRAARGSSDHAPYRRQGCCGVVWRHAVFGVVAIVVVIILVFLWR
UniProt O43681: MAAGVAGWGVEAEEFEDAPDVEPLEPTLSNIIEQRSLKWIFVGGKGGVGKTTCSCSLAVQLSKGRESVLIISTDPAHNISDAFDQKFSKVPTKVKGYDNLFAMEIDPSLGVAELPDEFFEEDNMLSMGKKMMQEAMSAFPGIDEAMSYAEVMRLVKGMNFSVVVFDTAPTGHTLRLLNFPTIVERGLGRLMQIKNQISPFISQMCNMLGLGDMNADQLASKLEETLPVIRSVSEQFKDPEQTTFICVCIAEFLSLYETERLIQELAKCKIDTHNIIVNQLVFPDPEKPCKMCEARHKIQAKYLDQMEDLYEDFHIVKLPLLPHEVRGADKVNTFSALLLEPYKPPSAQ

No constants are given. Whether binding was seen depends on the method and setting. Some results given as binding are weak or reduced against the parent protein; the word gives no strength.

For one test, the target named is HSV1 pUL34 (HSV1) (UniProt P10218). Kind of test: two-hybrid; Asna1 fused to the Gal4 activation domain (prey, pGADT7-AD) against viral proteins fused to the Gal4 DNA-binding domain (bait, pGBKT7-DBD); HIS3 reporter, growth of yeast on selective media.
Another test deals with HSV1 pUL56 (HSV1) (UniProt P10240). Described as above.

Turning to Asna1/TRC40 (from UniProt O43681 1-348), the binding entry in the test with HSV1 pUL34 (HSV1) and with HSV1 pUL56 (HSV1) was “binds” throughout.
